# Measurements taken from the supplement of paper PMC5770031.
# Some of the results follow. Single values are uncertain here, since repeats match poorly.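 Flies heterozygous for the ATM8 allele over a balancer chromosome carrying normal ATM were mated with each other on treated food. Parents laid eggs for 5–6 days and the young then developed for about 12 days, so both parents and larvae ate the compound. The read-out is the share of all emerged adults that carry two ATM8 copies, compared with 2% DMSO control vials. The paper called compounds neutral at 10–20% such offspring, harmful below 10%, and helpful above 20%.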
# Tested on: Drosophila melanogaster ATM8 (temperature-sensitive ATM allele)
# Test: fraction of eclosed F1 progeny that are homozygous ATM8 (rescue of developmental lethality); higher = more rescue of ATM8 developmental lethality; extreme values may be limits of the assay
# Settings: compound concentration applied to food 0.2 mM; 21 °C
row,Structure (SMILES),fraction of eclosed F1 progeny that are homozygous ATM8
1,CC(C)CC(NC(=O)[C@H](C)N)C(=O)O (mixture of isomers),0.0769
2,NC[C@H](O)c1ccc(O)c(O)c1,0.13
3,CCN(CC)CCNC(=O)c1ccc(N)cc1,0.191
4,O[C@H]1[C@H](O)[C@@H](O)C2OC[C@H]1O2,0.0244
5,CCCCCCOc1ccccc1C(N)=O,0.075
6,CC(=O)c1cc2ccccc2oc1=O,0.0943
7,O=c1cc[nH]c(=O)[nH]1,0.0227
8,C=CCN1CC[C@]23c4c5ccc(O)c4O[C@H]2C(=O)CC[C@@]3(O)[C@H]1C5,0.103
9,COc1ccc(-c2cc(=O)c3c(OC)c(OC)c(OC)c(OC)c3o2)cc1OC,0.104
10,CC/C=C\C/C=C\C/C=C\C/C=C\C/C=C\C/C=C\CCC(=O)O,0.177
11,CCCCC(CC)COc1ccc(-c2nc(-c3ccc(OC)cc3)nc(-c3ccc(OCC(CC)CCCC)cc3O)n2)c(O)c1 (stereo not drawn),0.286
12,CCC[C@@H]1C[C@@H](C(=O)N[C@@H]([C@H]2O[C@H](SC)[C@H](O)[C@@H](O)[C@H]2O)[C@@H](C)O)N(C)C1,0
13,C=C1C(N)CC2CC1C2(C)C (stereo not drawn) [3-AMINO-beta-PINENE],0.0833
14,CC(C)=CCc1c(O)cc2oc(C)cc(=O)c2c1O,0.075
15,CN1C(C(=O)Nc2ccccn2)=C(O)c2sc(Cl)cc2S1(=O)=O,0.0909
16,CC12CC3CC(C)(C1)CC(N)(C3)C2,0.0333
17,COc1ccc(-c2cc(=O)c3c(OC)c(OC)c(OC)c(OC)c3o2)cc1,0
18,O=c1n(Cl)c(=O)n(Cl)c(=O)n1Cl,0.254
19,CS(C)(=O)=O,0.25
20,Nc1ccc(S(=O)(=O)O)cc1.Nc1ccc(S(=O)(=O)O)cc1.[Zn],0.0909
21,CCOc1ccc(Cc2nccc3cc(OCC)c(OCC)cc23)cc1OCC,0.102
22,O=C(Nc1ccc([N+](=O)[O-])cc1Cl)c1cc(Cl)ccc1O,0.127
23,CCCCc1oc2ccccc2c1C(=O)c1cc(I)c(OCCN(CC)CC)c(I)c1,0.235
24,O=C(O)c1cccnc1,0.152

# Shown tab-delimited: entries from further up
row	Structure (SMILES)	fraction of eclosed F1 progeny that are homozygous ATM8
1	CC(C)CC(NC(=O)[C@H](C)N)C(=O)O (mixture of isomers)	0.0769
6	CC(=O)c1cc2ccccc2oc1=O	0.0943
8	C=CCN1CC[C@]23c4c5ccc(O)c4O[C@H]2C(=O)CC[C@@]3(O)[C@H]1C5	0.103
10	CC/C=C\C/C=C\C/C=C\C/C=C\C/C=C\C/C=C\CCC(=O)O	0.177
24	O=C(O)c1cccnc1	0.152

# Additional records

row,Structure (SMILES),fraction of eclosed F1 progeny that are homozygous ATM8
1,N[C@@H](COP(=O)(O)O)C(=O)O,0.154
2,Cc1cccc(N(C)C(=S)Oc2ccc3ccccc3c2)c1,0.0816
3,O=c1cccc2ccc(O)c(O)c2c1O,0.179
4,O=c1[nH]c(=O)n([C@H]2C[C@H](O)[C@@H](CO)O2)cc1I,0.0556
5,COc1ccc(-c2ccc3cc(C(=O)O)ccc3c2)cc1C12CC3CC(CC(C3)C1)C2,0.0968
6,CNC1CC(N)C(O)C(OC2OC(CO)C(O)C3OC4(OC(C(N)CO)C(O)C(O)C4O)OC23)C1O (stereo not drawn),0.244
7,CCCC(C)C1(CC)C(=O)NC(=O)NC1=O (stereo not drawn),0.281
8,C=CCc1ccc2c(c1)OCO2,0.238
9,O=C(O)c1cc2cc(F)ccc2[nH]1,0.171
10,NNC(=O)c1ccncc1,0.0789
11,CC1(C)CC2C1CCC1(C)OC1CCC2(C)O (stereo not drawn),0.0694
12,CC1(C)O[C@@H]2C[C@H]3[C@@H]4C[C@H](F)C5=CC(=O)CC[C@]5(C)[C@H]4[C@@H](O)C[C@]3(C)[C@]2(C(=O)CO)O1,0.136
13,CCC(=O)OCC(=O)[C@@]1(OC(=O)CC)[C@@H](C)C[C@H]2[C@@H]3CCC4=CC(=O)C=C[C@]4(C)[C@@]3(F)[C@@H](O)C[C@@]21C,0.0308
14,CC1=CCc2c(cc3oc(C)cc(=O)c3c2O)OC1,0.093
15,O[n+]1ccccc1S.O[n+]1ccccc1S.[Zn+2],0
16,CC(=O)OCC(=O)[C@@]1(O)CC[C@H]2[C@@H]3CCC4=CC(=O)C=C[C@]4(C)[C@H]3[C@@H](O)C[C@@]21C,0.237
17,C[C@]12CCC(=O)C=C1CC[C@@H]1[C@@H]2[C@@H](O)C[C@@]2(C)[C@H]1CC[C@]2(O)C(=O)COP(=O)(O)O,0.194
18,Cc1c(Nc2ncccc2C(=O)O)cccc1C(F)(F)F,0.219
19,CC[C@H](c1ccc(O)cc1)[C@@H](CC)c1ccc(O)cc1,0.264
20,O=C(Cc1ccccc1)NO,0.0488
21,COc1ccc(-c2cc(=O)c3c(OC)cc(OC)cc3o2)cc1,0.149
22,O=C(O)CCCCCCCC(O)C(O)CCCCCCO (stereo not drawn),0.143
23,COc1ccc2c(=O)cc(-c3ccccc3OC)oc2c1,0.0323
24,COC(=O)[C@@]1(C)CCC[C@]2(C)c3ccc(O)c(C(C)C)c3CCC12 (stereo partly drawn),0.476

row,Structure (SMILES),fraction of eclosed F1 progeny that are homozygous ATM8
1,CC1(C)O[C@@H]2C[C@H]3[C@@H]4C[C@H](F)C5=CC(=O)C=C[C@]5(C)[C@H]4[C@@H](O)C[C@]3(C)[C@]2(C(=O)CO)O1,0.154
2,C[C@H](CS)C(=O)N1CCC[C@H]1C(=O)O,0.214
3,S=C=NCc1ccccc1,0.212
4,CN(Cc1cc(Br)cc(Br)c1N)C1CCCCC1,0.0833
5,CC(=O)/C(=C\c1ccccc1)CC(=O)O,0.0732
6,C[C@]12CCC(=O)C=C1C=C[C@@H]1[C@@H]2CC[C@@]2(C)[C@H]1CC[C@@]2(O)CCC(=O)O,0.0714
7,CC(C)NCC(O)COc1cccc2[nH]ccc12 (stereo not drawn),0.0769
8,CC(C)=CCC[C@@H](C)[C@@H]1CC[C@]2(C)C3=C(CC[C@@]12C)[C@@]1(C)CC[C@H](O)C(C)(C)[C@@H]1CC3,0.0909
9,COC(=O)[C@H]1[C@H]2C[C@H]3c4[nH]c5ccccc5c4CCN3C[C@H]2CC[C@@H]1O,0.093
10,C=C(C)[C@@H]1CC[C@]2(C)CC[C@]3(C)[C@H](CC[C@@H]4[C@@]5(C)CC[C@H](OC(C)=O)C(C)(C)[C@@H]5CC[C@]43C)[C@@H]12,0.0323
11,CC(CN(C)C)CN1c2ccccc2CCc2ccccc21 (stereo not drawn),0.177
12,C[C@H]1[C@H]2CC[C@H]3[C@@H]4CC=C5C[C@@H](N(C)C)CC[C@]5(C)[C@H]4CC[C@]23CN1C,0.207
13,CC1=C(/C=C/C(C)=C/C=C/C(C)=C/C=C/C=C(C)/C=C/C=C(C)/C=C/C(=O)[C@]2(C)C[C@@H](O)CC2(C)C)C(C)(C)C[C@H](O)C1,0.269
14,C[N+](C)(C)C[C@H](O)CC(=O)[O-],0.19
15,Cc1cccc(C)c1NC(=O)CN1CCCC1=O,0.08
16,C=CC1=C(C)/C(=C/c2[nH]c(Cc3[nH]c(/C=C4\NC(=O)C(C)=C4C=C)c(C)c3CCC(=O)O)c(CCC(=O)O)c2C)NC1=O,0
17,C=CC[N+]1([C@H]2C[C@H]3[C@@H]4CC[C@H]5C[C@H](O)[C@@H](N6CCOCC6)C[C@]5(C)[C@H]4CC[C@]3(C)[C@H]2OC(C)=O)CCCC1,0.109
18,CO[C@H]1[C@H](O)[C@H](O[C@H]2CC[C@@]3(C=O)[C@H](CC[C@@H]4[C@@H]3CC[C@]3(C)[C@@H](C5=CC(=O)OC5)CC[C@]43O)C2)O[C@@H](C)[C@@H]1O,0.189
19,CC(C)(C)NC(=O)[C@H]1CC[C@H]2[C@@H]3CC[C@H]4NC(=O)C=C[C@]4(C)[C@H]3CC[C@]12C,0.069
20,CC(C)=CCCC1(C)C=Cc2c(O)c3c(c(CC=C(C)C)c2O1)OC12C(=CCCC1C(C)(C)O[C@@]2(C/C=C(\C)C(=O)O)C(=O)O)C3=O (stereo partly drawn),0.0976
21,C=C1CC[C@H](O)C/C1=C/C=C1\CCC[C@]2(C)[C@@H]([C@H](C)/C=C/[C@H](C)C(C)C)CC[C@@H]12,0.0312
22,Nc1nc(N)c2nc(-c3ccccc3)c(N)nc2n1,0.087
23,CC(=O)O[C@@H]1[C@H]2CC[C@H]3[C@@](C)(O)[C@@H]4C[C@H](O)C(C)(C)[C@@]4(O)[C@H](O)C[C@@]13C[C@@]2(C)O,0.182
24,C=C1C(=O)O[C@H]2[C@H]1CC/C(C)=C/CC[C@@]1(C)O[C@@H]21,0.111

row,Structure (SMILES),fraction of eclosed F1 progeny that are homozygous ATM8
1,COc1cccc(O)c1O,0
2,CCCCOc1ccc(C(=O)CCN2CCCCC2)cc1,0.0238
3,C[C@H](CC(=O)[C@@H]1OC1(C)C)[C@H]1C(=O)C[C@@]2(C)C3=CC[C@H]4C(C)(C)[C@@H](O[C@@H]5OC[C@@H](O)[C@H](O)[C@H]5O)CC[C@@]45C[C@@]35[C@@H](O)C[C@]12C,0.0667
4,COc1ccc(CCC(=O)c2c(O)cc(O[C@@H]3O[C@H](CO)[C@@H](O)[C@H](O)[C@H]3O[C@@H]3O[C@@H](C)[C@H](O)[C@@H](O)[C@H]3O)cc2O)cc1O,0.233
5,Cn1nnc2c(C(N)=O)ncn2c1=O,0.0571
6,CC[C@@H](C(=O)[C@@H](C)[C@@H](O)[C@H](C)[C@@H]1O[C@@H]([C@@H](CC)C(=O)O)CC[C@@H]1C)[C@H]1O[C@]2(C=C[C@@H](O)[C@]3(CC[C@@](C)([C@H]4CC[C@](O)(CC)[C@H](C)O4)O3)O2)[C@H](C)C[C@@H]1C,0.2
7,CN1[C@@H]2CC[C@H]1C[C@@H](OC(=O)C(O)c1ccccc1)C2 (stereo partly drawn),0.25
8,Nc1ccc(/N=N/c2ccccc2)c(N)n1,0.0882
9,C[C@H](N[C@@H](CCc1ccccc1)C(=O)O)C(=O)N1Cc2ccccc2C[C@H]1C(=O)O,0.0392
10,CCc1cc(Cl)c(OC)c(C(=O)NC[C@@H]2CCCN2CC)c1O,0.0811
11,CN(C)CCOC(=O)C(c1ccccc1)C1(O)CCCC1 (stereo not drawn),0
12,O=C(/C=C/c1ccccc1)c1ccc(O)cc1,0.151
13,O=C(O)c1ccc2c(c1)OCO2,0.214
14,O=c1ccc2cc(O[C@@H]3O[C@H](CO)[C@@H](O)[C@H](O)[C@H]3O)c(O)cc2o1,0.163
15,CCC(=O)O[C@]1(C(=O)SCF)[C@H](C)C[C@H]2[C@@H]3C[C@H](F)C4=CC(=O)C=C[C@]4(C)[C@@]3(F)[C@@H](O)C[C@@]21C,0.132
16,NCCCS(=O)(=O)O,0.156
17,Cc1c(S(=O)(=O)O)oc2c1C(=O)C(=O)c1c-2ccc2c1CCCC2(C)C,0.0833
18,Nc1nc(/C(=C/CC(=O)O)C(=O)N[C@@H]2C(=O)N3C(C(=O)O)=CCS[C@H]23)cs1,0.04
19,O=C1c2ccccc2-c2cccc3cccc1c23,0.0962
20,C[C@@H]1CC[C@@]2(OC1)O[C@H]1C[C@H]3[C@@H]4CC=C5C[C@@H](O)CC[C@]5(C)[C@H]4CC[C@]3(C)[C@H]1[C@@H]2C,0.3
21,Nc1ccc(C(=O)O)c(O)c1,0.132
